# Results deposited as PubChem BioAssay AID1159578 (Peter MacCallum Cancer Centre, 2015)
# Purpose: 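Knock-downs that alter how fast lymphatic endothelial cells migrate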 (primary screen)
# Cell system: human lymphatic endothelial cells
# Reagent: siRNA pool against human genes, 40 nM
# Time to read-out: 48 h after transfection
# Detection: 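High-content imaging of dye-stained cells in a scratch assay measures filled wound area and nuclei per well; duplicate means given as ratio to mock and robust z-score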
# Reading the numbers: migration robust z-score: higher = faster migration into the scratch; migration relative to mock: higher = more scratch area covered than mock; nuclei per well: higher = more cells in the well
# Call rule: 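Pools averaging fewer than 3300 nuclei are never called; remaining pools count as changed when migration robust z lies outside -2 to 2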
# Meaning of the calls: active = migration changed; inactive = no migration change, or too few cells
# The deposit covers about 18,000 reagents; this is an unselected part. About 1,030 of all reagents (5.7%) were called active. 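Inactive calls also include pools with fewer than 3300 nuclei, whose migration was not assessed.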 The raw values are shown without normalisation. Reagent sequences are not shown.
gene knocked down,migration robust z-score,migration class with cell-count check,migration relative to mock,"nuclei per well, duplicate mean",outcome
PTPRZ1 (protein tyrosine phosphatase receptor type Z1),0.62,migration z between -2 and 2; enough cells,0.92,5366,inactive
TNPO3 (transportin 3),-2.07,migration z below -2; enough cells,0.35,3934,active
POTED (POTE ankyrin domain family member D),2.02,migration z above 2; enough cells,1.41,7102,active
FOXP1 (forkhead box P1),0.05,migration z between -2 and 2; enough cells,0.9,5851,inactive
SIVA1 (SIVA1 apoptosis inducing factor),0.42,migration z between -2 and 2; enough cells,0.88,4541,inactive
BCL11A (BCL11 transcription factor A),-0.23,migration z between -2 and 2; enough cells,0.76,4968,inactive
CASP14 (caspase 14),-1.04,migration z between -2 and 2; enough cells,0.6,5360,inactive
ABCB5 (ATP binding cassette subfamily B member 5),0.55,migration z between -2 and 2; enough cells,0.91,5396,inactive
RTN1 (reticulon 1),-0.9,migration z between -2 and 2; enough cells,0.65,4051,inactive
"CRIPTO (cripto, EGF-CFC family member)",0.05,migration z between -2 and 2; enough cells,0.82,5686,inactive
SPRED1 (sprouty related EVH1 domain containing 1),0.87,migration z between -2 and 2; enough cells,1.11,6596,inactive
ZNF791 (zinc finger protein 791),-0.86,migration z between -2 and 2; enough cells,0.66,5656,inactive
HTR1A (5-hydroxytryptamine receptor 1A),-0.16,migration z between -2 and 2; enough cells,0.78,4196,inactive
CAV1 (caveolin 1),1.06,migration z between -2 and 2; enough cells,1.01,4921,inactive
TCAF1 (TRPM8 channel associated factor 1),-0.01,migration z between -2 and 2; enough cells,0.88,5807,inactive
FBXO8 (F-box protein 8),-1.87,migration z between -2 and 2; enough cells,0.45,5724,inactive
GATA2 (GATA binding protein 2),0.08,migration z between -2 and 2; enough cells,0.82,6262,inactive
SLC22A3,0.5,migration z between -2 and 2; enough cells,0.9,3784,inactive
OR13C2 (olfactory receptor family 13 subfamily C member 2),0.29,migration z between -2 and 2; enough cells,0.96,5219,inactive
PPP1R14A (protein phosphatase 1 regulatory inhibitor subunit 14A),0.42,migration z between -2 and 2; enough cells,1,6646,inactive
KAT6A (lysine acetyltransferase 6A),0.08,migration z between -2 and 2; enough cells,0.9,7847,inactive
SPRR1B (small proline rich protein 1B),-0.87,migration z between -2 and 2; enough cells,0.66,3332,inactive
FGFR1OP2 (FGFR1 oncogene partner 2),-0.94,migration z between -2 and 2; enough cells,0.64,4961,inactive
BCO2 (beta-carotene oxygenase 2),0.96,migration z between -2 and 2; enough cells,0.99,5929,inactive
TM9SF4 (transmembrane 9 superfamily member 4),-0.72,migration z between -2 and 2; enough cells,0.7,5476,inactive
KLHL1 (kelch like family member 1),-2.1,migration z below -2; enough cells,0.33,3576,active
ZCCHC8 (zinc finger CCHC-type containing 8),0.48,migration z between -2 and 2; enough cells,1.01,7145,inactive
DRD5 (dopamine receptor D5),1.42,migration z between -2 and 2; enough cells,1.08,5913,inactive
FAS (Fas cell surface death receptor),-1.48,under 3300 nuclei; migration not judged,0.52,3185,inactive
"METTL4 (methyltransferase 4, N6-adenosine)",0.01,migration z between -2 and 2; enough cells,0.88,5160,inactive
TNFAIP1 (TNF alpha induced protein 1),0.05,migration z between -2 and 2; enough cells,0.82,4904,inactive
FBXO17 (F-box protein 17),1.03,migration z between -2 and 2; enough cells,1,5417,inactive
MATK (megakaryocyte-associated tyrosine kinase),-2.62,migration z below -2; enough cells,0.3,3396,active
DRC4 (dynein regulatory complex subunit 4),0.2,migration z between -2 and 2; enough cells,0.94,6386,inactive
UBE2NL (ubiquitin conjugating enzyme E2 N like (gene/pseudogene)),-1.35,migration z between -2 and 2; enough cells,0.54,5220,inactive
PCDHB1 (protocadherin beta 1),-0.07,migration z between -2 and 2; enough cells,0.86,6911,inactive
GJA9 (gap junction protein alpha 9),-0.53,migration z between -2 and 2; enough cells,0.74,3566,inactive
MAP3K8 (mitogen-activated protein kinase kinase kinase 8),-2.16,migration z below -2; enough cells,0.39,4724,active
ARPC1B (actin related protein 2/3 complex subunit 1B),-0.16,migration z between -2 and 2; enough cells,0.84,4685,inactive
ERICH3 (glutamate rich 3),-0.96,migration z between -2 and 2; enough cells,0.64,6616,inactive
GNG3 (G protein subunit gamma 3),-0.04,migration z between -2 and 2; enough cells,0.88,5119,inactive
CDC42EP4 (CDC42 effector protein 4),1.15,migration z between -2 and 2; enough cells,1.19,4809,inactive
FGFR2 (fibroblast growth factor receptor 2),-1.5,under 3300 nuclei; migration not judged,0.52,2758,inactive
NF1 (neurofibromin 1),0.29,migration z between -2 and 2; enough cells,0.86,4836,inactive
MMP12 (matrix metallopeptidase 12),-0.42,migration z between -2 and 2; enough cells,0.73,5020,inactive
"HLA-DRB1 (major histocompatibility complex, class II, DR beta 1)",0.88,migration z between -2 and 2; enough cells,0.98,8168,inactive
UBN1 (ubinuclein 1),0.94,migration z between -2 and 2; enough cells,0.98,4534,inactive
EFEMP1 (EGF-like fibulin extracellular matrix protein 1),0.18,migration z between -2 and 2; enough cells,0.94,5344,inactive
RRN3 (RNA polymerase I transcription factor RRN3),-0.72,migration z between -2 and 2; enough cells,0.7,5833,inactive
CLDN23 (claudin 23),0.06,migration z between -2 and 2; enough cells,0.9,5062,inactive
GAN (gigaxonin),-1.85,migration z between -2 and 2; enough cells,0.41,5148,inactive
SH2D6 (SH2 domain containing 6),-0.36,migration z between -2 and 2; enough cells,0.79,5924,inactive
AKR7A3 (aldo-keto reductase family 7 member A3),0.98,migration z between -2 and 2; enough cells,1,5932,inactive
STATH (statherin),-1.21,migration z between -2 and 2; enough cells,0.57,4766,inactive
THRSP (thyroid hormone responsive),1.17,migration z between -2 and 2; enough cells,1.19,4102,inactive
OR9Q2 (olfactory receptor family 9 subfamily Q member 2),0.81,migration z between -2 and 2; enough cells,1.09,4818,inactive
TPST1 (tyrosylprotein sulfotransferase 1),0.29,migration z between -2 and 2; enough cells,0.86,4168,inactive

No new results follow: an excerpt of the list.
gene knocked down,migration robust z-score,migration class with cell-count check,migration relative to mock,"nuclei per well, duplicate mean",outcome
DRC4 (dynein regulatory complex subunit 4),0.2,migration z between -2 and 2; enough cells,0.94,6386,inactive
UBE2NL (ubiquitin conjugating enzyme E2 N like (gene/pseudogene)),-1.35,migration z between -2 and 2; enough cells,0.54,5220,inactive
PCDHB1 (protocadherin beta 1),-0.07,migration z between -2 and 2; enough cells,0.86,6911,inactive
GJA9 (gap junction protein alpha 9),-0.53,migration z between -2 and 2; enough cells,0.74,3566,inactive
MAP3K8 (mitogen-activated protein kinase kinase kinase 8),-2.16,migration z below -2; enough cells,0.39,4724,active
ARPC1B (actin related protein 2/3 complex subunit 1B),-0.16,migration z between -2 and 2; enough cells,0.84,4685,inactive
ERICH3 (glutamate rich 3),-0.96,migration z between -2 and 2; enough cells,0.64,6616,inactive
GNG3 (G protein subunit gamma 3),-0.04,migration z between -2 and 2; enough cells,0.88,5119,inactive
